Measured values as given in PubChem BioAssay AID1671190 (National Center for Advancing Translational Sciences (NCATS), 2021).
About 6,100 (1.1%) of roughly 580,000 compounds were called active. This list was built around the results that the source calls inconclusive (neither active nor inactive); the mix of calls is not that of the screen. Calls follow the shape of the dose curve; as a rule, active = well fitted inhibition curve with a large enough effect; inconclusive = small, poorly fitted or top-dose-only effect, or another doubt; inactive = no such curve, though single readings can be large or run the other way. Potencies of inconclusive entries are doubtful fits and often do not repeat.

The chains behind the UniProt entries cited, without tags or fusion partners. Where a name states a change or a piece, a line headed by the entry shows the natural chain unless it says otherwise.
UniProt P18054: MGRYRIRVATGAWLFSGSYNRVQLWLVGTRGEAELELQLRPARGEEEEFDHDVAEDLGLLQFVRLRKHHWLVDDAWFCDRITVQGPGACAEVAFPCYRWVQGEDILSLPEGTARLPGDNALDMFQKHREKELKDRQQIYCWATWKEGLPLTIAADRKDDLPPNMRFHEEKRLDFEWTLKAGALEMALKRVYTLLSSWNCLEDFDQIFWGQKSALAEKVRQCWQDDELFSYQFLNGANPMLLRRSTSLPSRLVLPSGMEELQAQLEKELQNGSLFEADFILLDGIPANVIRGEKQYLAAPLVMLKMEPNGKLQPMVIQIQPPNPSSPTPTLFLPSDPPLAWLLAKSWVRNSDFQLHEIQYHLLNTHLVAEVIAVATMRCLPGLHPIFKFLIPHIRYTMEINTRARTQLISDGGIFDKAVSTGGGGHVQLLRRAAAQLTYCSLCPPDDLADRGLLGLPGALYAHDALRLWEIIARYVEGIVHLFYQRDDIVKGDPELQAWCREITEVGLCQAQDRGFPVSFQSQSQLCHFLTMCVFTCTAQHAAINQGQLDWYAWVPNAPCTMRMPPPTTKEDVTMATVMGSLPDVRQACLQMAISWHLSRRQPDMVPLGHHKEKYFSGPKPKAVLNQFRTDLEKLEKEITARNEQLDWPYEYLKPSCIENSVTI

Each compound was assayed against Polyunsaturated fatty acid lipoxygenase ALOX12 (Homo sapiens) (UniProt P18054) (assay: Primary qHTS assay for inhibitors of human arachidonate 12S-lipoxygenase (ALOX12): Round 2). Settings: purified 12hLO, xylenol orange hydroperoxide absorbance; activity change, negative = inhibition: at 108 µM (top of the series) unless noted.
Method in brief: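 Purified human 12hLO at 150 nM in 25 mM Hepes, 0.01% Triton X-100, pH 7.0, preincubated 15 min at room temperature with compound. Reaction started with 40 uM arachidonic acid, 30 min at room temperature. Hydroperoxide measured by Fe-xylenol orange, 573/405 nm absorbance ratio.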
% is scaled to controls: 0 for no effect and ±100 for the full control effect; potency is read from the fitted curve at half-maximal effect.

Compound	Potency	activity change, negative = inhibition
Cc1cccc(C2=NN(c3ccccc3)[C@@H](C(=O)N3CCOC3=O)[C@@H]2c2ccc(Cl)cc2)c1	inconclusive: 112 µM [inhibitor, single point]	
COC(=O)C1=C(C)N(C)C(=NCc2cccc(C(F)(F)F)c2)NC1c1ccccc1 (stereo unspecified)	inconclusive: 79.4 µM [inhibitor, partial curve, poor fit]	
O=C(O)Cn1cc(C(C(=O)O)N2CCN(Cc3cccnc3)CC2)c2ccc(Cl)cc21 (stereo unspecified)	inconclusive: 14.1 µM [inhibitor, full curve, poor fit]	
Cn1nc(C(=O)N(Cc2ccc3c(c2)OCO3)C2CCCC2)c2ccccc2c1=O	inactive	
CCc1nc2ccc(C(=O)NCCc3ccccn3)cn2c1N(C)Cc1ccc(N(C)C)cc1	inactive	
CCOC(=O)Cn1cc(CN2C(C(=O)OC)CN(Cc3ccccc3)CCS2(=O)=O)nn1 (stereo unspecified)	inconclusive: 8.91 µM [inhibitor, full curve, poor fit]	
CC(C)c1nnc(NC(=O)C2CCN(C(=O)c3ccco3)CC2)s1	inconclusive: 100 µM [inhibitor, partial curve, poor fit]	
COc1cc(C2/C(=C(\O)c3ccc4c(c3)CC(C)O4)C(=O)C(=O)N2CCN2CCOCC2)cc(OC)c1OC (stereo unspecified)	inconclusive: 12.6 µM [inhibitor, full curve, poor fit]	
O=[N+]([O-])c1cc(/C=N/n2c(-c3cccnc3)n[nH]c2=S)ccc1Cl	inconclusive: 25.1 µM [inhibitor, partial curve]	
Cc1cc2cc(CNC(=O)c3cccs3)ccc2n1C	inconclusive: 3.55 µM [inhibitor, full curve, poor fit]	
CCn1c2ccccc2c2nnc(SCC(=O)O)nc21	inconclusive: 112 µM [inhibitor, single point]	
CC1(C)c2ccccc2-n2c1cc1oc(=O)cc(O)c1c2=O	inconclusive: 39.8 µM [inhibitor, partial curve, poor fit]	
CN1CCN(CCCNC(=O)CCCOc2cc(=O)n(C)c3ccccc23)CC1	inactive	
O=C(Nc1ccccc1Oc1ccccc1)c1cccc([N+](=O)[O-])c1	inconclusive: 89.1 µM [inhibitor, single point]	
Cc1ccc(-n2cnnc2SCC(=O)Nc2nc3c(C)cccc3s2)cc1	inconclusive: 70.8 µM [inhibitor, single point]	
COc1cccc(/C=C/c2[nH]c(=O)[nH]c(=O)c2[N+](=O)[O-])c1O	inconclusive: 12.6 µM [inhibitor, full curve]	
CC(C)Cn1c(-c2ccco2)nc2c(c(=O)c3ccccc3n2C)c1=O	inconclusive: 28.2 µM [inhibitor, partial curve]	
COc1ccc(CNC(=O)Cc2c(C)c3cc4c(C)coc4c(C)c3oc2=O)cc1	inconclusive: 63.1 µM [inhibitor, partial curve, poor fit]	
COCC(=O)Nc1cc(C)cn(Cc2c(F)cccc2Cl)c1=O	inactive	
Cc1ccc(-c2noc(C(C)NS(=O)(=O)c3ccc(C)cc3)n2)cc1 (stereo unspecified)	inconclusive: 89.1 µM [inhibitor, partial curve, poor fit]	

Reprinted at random: 2 records from the list.
Compound	Potency	activity change, negative = inhibition
CCc1nc2ccc(C(=O)NCCc3ccccn3)cn2c1N(C)Cc1ccc(N(C)C)cc1	inactive	
CC1(C)c2ccccc2-n2c1cc1oc(=O)cc(O)c1c2=O	inconclusive: 39.8 µM [inhibitor, partial curve, poor fit]	

The list goes on.

Compound	Potency	activity change, negative = inhibition
COc1ccc(NC(=O)NNC(=O)c2cc3ccccc3cc2O)cc1	inactive	
Cc1noc(C)c1CSCC(=O)Nc1nc2ccc(F)cc2s1	inconclusive: 39.8 µM [inhibitor, partial curve, poor fit]	
Sc1oc(-c2ccccc2)cc1C=Nc1ccccc1	inconclusive: 0.794 µM [inhibitor, full curve, poor fit]	
FC(F)(F)c1cccc(Nc2cc(-c3ccccc3)nc3ncnn23)c1	inconclusive: 79.4 µM [inhibitor, partial curve, poor fit]	
O=C(O)Cc1ccc(N=Nc2c(O)c(C(=O)O)cc3ccccc23)cc1	inconclusive: 5.01 µM [inhibitor, partial curve, poor fit]	
O=C(CCl)N1c2ccccc2OCC1c1ccccc1 (stereo unspecified)	inactive	
CCc1ccc(N=C2NC(=O)/C(=C/c3cc(Br)c(OCC(=O)O)c(OC)c3)S2)cc1	inactive	
Cc1ccc(C(=O)N2CCN(c3oc(C4CC4)nc3C#N)CC2)c(C)n1	inconclusive: 35.5 µM [inhibitor, single point]	
COc1cc(OC)c(NC(=O)Cn2nc(Cc3ccncc3)c3ccccc3c2=O)cc1Cl	inactive	
O=C1/C(=C/C=C/c2ccco2)SC(=S)N1NS(=O)(=O)c1ccccc1	inconclusive: 112 µM [inhibitor, single point]	
O=C1NC2(CCN(Cc3ccccc3C(F)(F)F)CC2)Oc2ccccc21	inactive	
Brc1ccc(Nc2nc(-c3cccnc3)cs2)cc1	inconclusive: 44.7 µM [inhibitor, partial curve, poor fit]	
CN(C)C(=O)c1ccc(-c2cc3c(Nc4cccc(Oc5ccccc5)c4)nccc3n2C)cc1	inactive	
CCOCCCNC(=O)c1c(N)n(-c2ccc3c(c2)OCO3)c2nc3ccccc3nc12	inactive	
COc1ccc(OC)c(CN2CCC(Cc3ccccc3)CC2)c1	inconclusive: 0.355 µM [inhibitor, full curve, poor fit]	
CCN(CC)c1ccc(S(N)(=O)=O)cc1N	inconclusive: 35.5 µM [inhibitor, partial curve, poor fit]	
CC(=O)c1ccc(S(=O)(=O)N2CCn3cccc3C2c2ccc(C)cc2)cc1 (stereo unspecified)	inactive	
COc1cccc(C(CNC(=O)c2ccc(S(=O)(=O)Nc3ccc(C)cc3)cc2)N(C)C)c1 (stereo unspecified)	inconclusive: 39.8 µM [inhibitor, partial curve, poor fit]	
COc1ccc(NC(=O)C2C(c3ccccc3)C2(Cl)Cl)cc1 (stereo unspecified)	inconclusive: 56.2 µM [inhibitor, partial curve, poor fit]	
Cc1ccc2nc3c(cc(C(=O)NCC4CCCO4)c(=N)n3C(C)C)c(=O)n2c1 (stereo unspecified)		inconclusive: -40.7% [inhibitor]
